# Results reported in PMC3735604.
# By UniProt entry, the sequences of proteins in these tests, tags left out. Where a name states a change or a piece, a line headed by the entry shows the natural chain unless it says otherwise. Chains listed by the source or under a name are the forms on record and can include a tag or linker.
# UniProt O88737: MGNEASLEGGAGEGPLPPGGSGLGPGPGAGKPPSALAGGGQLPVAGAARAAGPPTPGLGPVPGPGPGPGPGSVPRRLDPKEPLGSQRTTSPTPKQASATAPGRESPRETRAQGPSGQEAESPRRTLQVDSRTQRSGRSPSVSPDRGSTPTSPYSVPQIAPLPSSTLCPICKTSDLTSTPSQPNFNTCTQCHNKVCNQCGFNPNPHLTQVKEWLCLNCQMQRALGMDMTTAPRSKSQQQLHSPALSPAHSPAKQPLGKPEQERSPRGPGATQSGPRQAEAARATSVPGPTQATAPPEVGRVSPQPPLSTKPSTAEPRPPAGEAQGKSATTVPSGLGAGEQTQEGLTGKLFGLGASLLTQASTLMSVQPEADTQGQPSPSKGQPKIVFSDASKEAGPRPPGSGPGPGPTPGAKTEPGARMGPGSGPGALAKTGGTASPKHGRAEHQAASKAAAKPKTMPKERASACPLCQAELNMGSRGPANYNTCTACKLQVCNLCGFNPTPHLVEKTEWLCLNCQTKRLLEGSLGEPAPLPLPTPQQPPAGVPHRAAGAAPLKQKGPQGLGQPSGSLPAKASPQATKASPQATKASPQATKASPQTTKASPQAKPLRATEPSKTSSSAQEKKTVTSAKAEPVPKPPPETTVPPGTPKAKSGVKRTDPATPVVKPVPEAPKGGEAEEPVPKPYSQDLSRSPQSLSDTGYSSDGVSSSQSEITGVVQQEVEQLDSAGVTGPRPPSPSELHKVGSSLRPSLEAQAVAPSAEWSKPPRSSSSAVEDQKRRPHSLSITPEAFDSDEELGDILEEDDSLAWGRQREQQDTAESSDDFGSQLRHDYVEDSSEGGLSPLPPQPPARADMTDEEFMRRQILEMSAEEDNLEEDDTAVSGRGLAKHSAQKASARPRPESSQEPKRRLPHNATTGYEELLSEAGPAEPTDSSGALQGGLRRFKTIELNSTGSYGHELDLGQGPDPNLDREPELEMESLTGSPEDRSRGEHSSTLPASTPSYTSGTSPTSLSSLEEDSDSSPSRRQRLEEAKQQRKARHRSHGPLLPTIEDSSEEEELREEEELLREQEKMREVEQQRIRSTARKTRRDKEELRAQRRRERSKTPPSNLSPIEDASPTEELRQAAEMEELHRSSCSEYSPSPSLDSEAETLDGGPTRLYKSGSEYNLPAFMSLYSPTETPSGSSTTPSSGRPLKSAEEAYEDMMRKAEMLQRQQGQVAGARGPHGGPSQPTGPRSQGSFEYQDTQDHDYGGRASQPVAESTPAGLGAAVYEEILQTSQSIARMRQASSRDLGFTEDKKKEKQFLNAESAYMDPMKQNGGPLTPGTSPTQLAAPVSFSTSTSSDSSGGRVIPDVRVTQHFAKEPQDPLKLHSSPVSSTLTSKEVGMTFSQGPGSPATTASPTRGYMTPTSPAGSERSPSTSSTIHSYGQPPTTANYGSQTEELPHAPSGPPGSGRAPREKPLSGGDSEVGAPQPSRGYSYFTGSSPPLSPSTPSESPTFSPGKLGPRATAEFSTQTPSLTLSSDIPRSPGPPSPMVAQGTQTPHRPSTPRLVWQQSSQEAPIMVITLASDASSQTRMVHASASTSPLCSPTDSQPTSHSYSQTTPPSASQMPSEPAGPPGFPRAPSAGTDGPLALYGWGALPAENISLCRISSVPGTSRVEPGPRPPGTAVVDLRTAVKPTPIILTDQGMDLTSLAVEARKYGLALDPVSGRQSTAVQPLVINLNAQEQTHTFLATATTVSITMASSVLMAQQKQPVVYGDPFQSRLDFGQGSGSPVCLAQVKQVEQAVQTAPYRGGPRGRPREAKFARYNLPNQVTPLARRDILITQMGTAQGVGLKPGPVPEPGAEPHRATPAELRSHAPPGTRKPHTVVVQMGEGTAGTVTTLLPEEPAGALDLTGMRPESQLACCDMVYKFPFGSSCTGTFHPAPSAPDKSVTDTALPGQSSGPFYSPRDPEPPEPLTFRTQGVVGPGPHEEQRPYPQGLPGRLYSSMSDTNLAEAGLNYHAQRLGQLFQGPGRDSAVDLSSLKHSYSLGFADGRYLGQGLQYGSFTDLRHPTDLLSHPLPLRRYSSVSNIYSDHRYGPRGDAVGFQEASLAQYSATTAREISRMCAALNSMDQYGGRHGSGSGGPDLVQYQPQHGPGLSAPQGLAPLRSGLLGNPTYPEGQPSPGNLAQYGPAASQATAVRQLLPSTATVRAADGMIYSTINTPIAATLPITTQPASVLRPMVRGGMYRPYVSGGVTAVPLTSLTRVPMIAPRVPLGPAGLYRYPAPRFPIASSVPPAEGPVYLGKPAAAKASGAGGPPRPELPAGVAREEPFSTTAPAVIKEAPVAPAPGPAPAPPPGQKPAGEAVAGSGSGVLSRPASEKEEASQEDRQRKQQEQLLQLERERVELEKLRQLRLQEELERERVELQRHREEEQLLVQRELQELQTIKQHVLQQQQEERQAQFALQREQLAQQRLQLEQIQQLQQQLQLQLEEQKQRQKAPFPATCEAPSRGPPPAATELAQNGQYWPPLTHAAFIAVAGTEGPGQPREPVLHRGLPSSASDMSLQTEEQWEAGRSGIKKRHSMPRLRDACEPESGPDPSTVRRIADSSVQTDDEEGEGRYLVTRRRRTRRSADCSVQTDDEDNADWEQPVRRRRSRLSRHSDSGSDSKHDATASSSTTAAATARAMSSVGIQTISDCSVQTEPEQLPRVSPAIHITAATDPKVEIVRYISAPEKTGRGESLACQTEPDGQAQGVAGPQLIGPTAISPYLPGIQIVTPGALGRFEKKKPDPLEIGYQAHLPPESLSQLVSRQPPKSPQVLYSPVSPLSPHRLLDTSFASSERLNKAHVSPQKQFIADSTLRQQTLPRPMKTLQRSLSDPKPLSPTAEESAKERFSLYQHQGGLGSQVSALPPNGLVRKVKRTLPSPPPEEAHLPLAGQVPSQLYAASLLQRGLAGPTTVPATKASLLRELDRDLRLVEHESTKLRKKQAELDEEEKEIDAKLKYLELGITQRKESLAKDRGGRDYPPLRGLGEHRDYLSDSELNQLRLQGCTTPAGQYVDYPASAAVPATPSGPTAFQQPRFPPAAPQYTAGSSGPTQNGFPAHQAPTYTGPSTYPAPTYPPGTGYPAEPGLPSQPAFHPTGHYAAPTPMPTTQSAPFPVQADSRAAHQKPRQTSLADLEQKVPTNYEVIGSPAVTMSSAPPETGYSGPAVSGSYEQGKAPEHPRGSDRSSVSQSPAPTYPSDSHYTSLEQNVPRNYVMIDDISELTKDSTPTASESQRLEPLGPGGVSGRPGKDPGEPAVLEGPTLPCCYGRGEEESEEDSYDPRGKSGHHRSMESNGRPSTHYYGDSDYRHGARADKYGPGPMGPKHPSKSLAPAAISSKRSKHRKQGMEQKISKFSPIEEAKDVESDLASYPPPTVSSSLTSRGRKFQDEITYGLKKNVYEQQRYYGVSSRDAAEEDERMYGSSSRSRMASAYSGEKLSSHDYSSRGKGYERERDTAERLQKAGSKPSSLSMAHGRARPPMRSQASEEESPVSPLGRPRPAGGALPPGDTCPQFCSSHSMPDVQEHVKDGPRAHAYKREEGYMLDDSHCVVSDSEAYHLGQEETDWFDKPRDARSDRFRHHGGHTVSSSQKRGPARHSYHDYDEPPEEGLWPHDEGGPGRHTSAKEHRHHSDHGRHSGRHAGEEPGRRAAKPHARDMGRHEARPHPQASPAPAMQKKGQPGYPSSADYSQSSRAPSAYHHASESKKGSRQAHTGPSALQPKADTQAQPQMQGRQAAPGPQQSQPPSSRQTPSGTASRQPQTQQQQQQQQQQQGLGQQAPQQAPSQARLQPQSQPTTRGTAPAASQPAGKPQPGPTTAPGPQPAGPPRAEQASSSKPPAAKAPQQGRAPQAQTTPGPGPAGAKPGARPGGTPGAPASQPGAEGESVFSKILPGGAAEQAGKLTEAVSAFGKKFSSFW
# RIBEYE (P56546-2, form named): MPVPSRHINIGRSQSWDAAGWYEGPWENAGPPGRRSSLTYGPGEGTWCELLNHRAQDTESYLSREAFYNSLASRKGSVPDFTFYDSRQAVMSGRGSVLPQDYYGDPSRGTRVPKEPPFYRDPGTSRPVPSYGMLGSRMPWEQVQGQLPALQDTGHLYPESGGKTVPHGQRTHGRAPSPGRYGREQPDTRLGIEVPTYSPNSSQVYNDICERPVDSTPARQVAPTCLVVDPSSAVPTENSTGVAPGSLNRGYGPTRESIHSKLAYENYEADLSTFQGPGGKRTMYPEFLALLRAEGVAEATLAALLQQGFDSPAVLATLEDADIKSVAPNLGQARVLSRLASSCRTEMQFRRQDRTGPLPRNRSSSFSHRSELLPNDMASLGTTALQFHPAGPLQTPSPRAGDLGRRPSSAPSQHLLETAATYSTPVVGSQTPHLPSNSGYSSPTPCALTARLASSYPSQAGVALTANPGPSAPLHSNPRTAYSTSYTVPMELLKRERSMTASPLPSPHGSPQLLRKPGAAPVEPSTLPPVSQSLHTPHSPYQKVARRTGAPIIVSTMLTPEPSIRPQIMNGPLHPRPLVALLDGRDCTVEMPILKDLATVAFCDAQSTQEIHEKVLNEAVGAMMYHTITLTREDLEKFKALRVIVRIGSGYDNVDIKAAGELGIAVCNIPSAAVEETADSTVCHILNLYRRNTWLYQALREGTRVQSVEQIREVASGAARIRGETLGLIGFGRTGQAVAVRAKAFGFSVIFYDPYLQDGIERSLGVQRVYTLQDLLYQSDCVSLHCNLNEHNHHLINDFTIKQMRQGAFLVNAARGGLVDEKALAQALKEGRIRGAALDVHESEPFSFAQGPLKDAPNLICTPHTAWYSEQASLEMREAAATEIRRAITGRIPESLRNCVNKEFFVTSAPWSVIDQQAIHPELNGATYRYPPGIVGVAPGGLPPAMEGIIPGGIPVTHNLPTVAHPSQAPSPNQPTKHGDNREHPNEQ
# These are yes or no findings as the source states them, for the method shown. In cells and extracts the contact can be indirect. Some binding calls cover weakened binding; strength is not graded here.
# Target: Bassoon (mouse (endogenous in mouse retina)) (UniProt O88737)
# Assay: proximity ligation; in situ PLA (Duolink, anti-rabbit PLUS and anti-mouse MINUS probes) on 12 µm vertical cryosections of wild-type mouse retina; primary antibodies overnight at room temperature; signal when the two antigens are <40 nm apart
row,Substance,binding
1,RIBEYE (from UniProt P56546-2 1-988),binds
2,full-length Piccolo (from UniProt Q9QYX7-1 1-5068),binds
